From patent US10912771B1, “Methods for the administration of certain VMAT2 inhibitors” (Neurocrine Biosciences, Inc., priority 2017, dated 2021)
Some results were stated once for a whole list of compounds, not compound by compound.

Test system: more than 80 targets (GPCRs, cell-surface monoamine transporters, ion channels including HERG)
Test: Cerep multi-target activity screen
Conditions: 1 or 10 μM

Compound	inhibition of ligand binding to a number of receptor subtypes including serotonin, dopamine and adrenergic receptors
COc1cc2c(cc1OC)[C@@H]1C[C@@H](O)[C@@H](CC(C)C)CN1CC2 [R,S,S-DHTBZ]	more than 50%
COc1cc2c(cc1OC)[C@H]1C[C@H](O)[C@H](CC(C)C)CN1CC2 [S,R,R-DHTBZ, reference compound]	more than 50%
COc1cc2c(cc1OC)[C@@H]1C[C@H](O)[C@@H](CC(C)C)CN1CC2 [S,S,S-DHTBZ]	more than 50%

Same assay, conditions: more than 80 targets; concentrations of 1-10 μM

Compound	inhibition of the binding of cognate ligands to any of the targets [%]
COc1cc2c(cc1OC)[C@H]1C[C@@H](OC(=O)[C@@H](N)C(C)C)[C@H](CC(C)C)CN1CC2 [NBI-98854, (S)-2-amino-3-methyl-butyric acid (2R, 3R,11bR)-3-isobutyl-9,10-dimethoxy-1,3,4,6,7,11b-hexahydro-2H-pyrido[2,1-a]isoquinolin-2-yl ester]	≤ 50
COc1cc2c(cc1OC)[C@H]1C[C@@H](OC(=O)[C@@H](N)C(C)(C)O)[C@H](CC(C)C)CN1CC2 [NBI-136110]	≤ 50
COc1cc2c(cc1OC)[C@H]1C[C@@H](O)[C@H](CC(C)C)CN1CC2 [NBI-98782, (2R, 3R,11bR)-3-isobutyl-9,10-dimethoxy-1,3,4,6,7,11b-hexahydro-2H-pyrido[2,1-a]isoquinolin-2-ol]	≤ 50
